Assay in all cases: EMSA
(Mobility shift assays separate free from complexed probe on a gel.)

Chains of the proteins cited; added tags and fusions are not shown. A line that says so, or that is headed by a name, gives the form on record, which may keep a tag or linker.
RIP15/RXRalpha heterodimer (Mus musculus / Homo sapiens), one chain, as listed by the source, chain 2 of 2: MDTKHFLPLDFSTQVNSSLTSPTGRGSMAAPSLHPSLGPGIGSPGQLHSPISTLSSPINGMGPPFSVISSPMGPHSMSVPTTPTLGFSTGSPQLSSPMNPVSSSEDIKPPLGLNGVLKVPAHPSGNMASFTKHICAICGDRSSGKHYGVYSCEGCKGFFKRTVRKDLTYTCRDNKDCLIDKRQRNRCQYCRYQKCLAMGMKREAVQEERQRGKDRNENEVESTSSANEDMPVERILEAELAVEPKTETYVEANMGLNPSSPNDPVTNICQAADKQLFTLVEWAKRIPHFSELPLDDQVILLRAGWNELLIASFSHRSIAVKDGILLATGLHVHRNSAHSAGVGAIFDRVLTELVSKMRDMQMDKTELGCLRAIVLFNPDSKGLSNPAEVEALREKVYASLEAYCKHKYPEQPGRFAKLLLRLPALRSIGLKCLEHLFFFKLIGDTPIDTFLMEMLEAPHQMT
RIP15/RXRalpha heterodimer (Mus musculus / Homo sapiens), one chain, as listed by the source, chain 1 of 2: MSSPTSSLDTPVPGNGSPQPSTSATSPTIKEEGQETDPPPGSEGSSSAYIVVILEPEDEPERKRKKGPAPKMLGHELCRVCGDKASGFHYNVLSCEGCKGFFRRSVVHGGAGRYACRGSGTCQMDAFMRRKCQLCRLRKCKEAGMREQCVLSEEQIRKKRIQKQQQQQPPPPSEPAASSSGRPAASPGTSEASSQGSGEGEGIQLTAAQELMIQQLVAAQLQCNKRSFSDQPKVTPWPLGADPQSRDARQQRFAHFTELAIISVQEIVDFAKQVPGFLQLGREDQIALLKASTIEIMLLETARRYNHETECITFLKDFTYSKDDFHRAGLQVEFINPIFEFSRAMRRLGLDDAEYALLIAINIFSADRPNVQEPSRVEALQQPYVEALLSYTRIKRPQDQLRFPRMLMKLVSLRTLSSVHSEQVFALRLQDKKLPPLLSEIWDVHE

In one series the target is T1, RIP14-1 (Mus musculus) (UniProt Q60641).
T1 sequence: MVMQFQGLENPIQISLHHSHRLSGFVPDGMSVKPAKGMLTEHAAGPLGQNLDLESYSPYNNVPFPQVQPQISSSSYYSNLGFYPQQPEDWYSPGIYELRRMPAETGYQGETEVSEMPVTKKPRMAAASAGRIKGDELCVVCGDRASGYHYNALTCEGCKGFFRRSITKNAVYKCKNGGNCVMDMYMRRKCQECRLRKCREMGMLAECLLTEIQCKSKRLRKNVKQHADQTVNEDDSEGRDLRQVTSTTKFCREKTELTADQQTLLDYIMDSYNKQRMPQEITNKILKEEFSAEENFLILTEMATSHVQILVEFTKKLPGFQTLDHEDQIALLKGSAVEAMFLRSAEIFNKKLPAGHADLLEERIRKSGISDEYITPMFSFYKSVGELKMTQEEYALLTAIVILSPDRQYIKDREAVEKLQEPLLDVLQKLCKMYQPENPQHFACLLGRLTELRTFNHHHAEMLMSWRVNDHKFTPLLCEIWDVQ
To be noted: protein translated in vitro, label: 32P end label.

Series [1] has as its system RIP15/RXRalpha heterodimer (Mus musculus / Homo sapiens). To be noted: protein translated in vitro; protein details: human RXRalpha expressed in E. coli; label: 32P end label.
Series [2] concerns RIP14C (RIP14-1 with MYTG insertion in D domain)/RXRalpha heterodimer insertion of MYTG in D domain of RIP14-1 at the position found in RIP14-2 (Mus musculus / Homo sapiens). To be noted: similar to RIP14-1/RXR; protein translated in vitro; protein details: human RXRalpha expressed in E. coli; label: 32P end label.

For at least one entry, the source does not settle the construct or the ends of the probe. For some assays here: A negative result means that nothing was seen under these conditions. For some assays here: Where a protein sequence is shown, tags need not be part of it. For some assays here: The comparison behind a weaker result is the experiment's own reference, which may not be listed here.

As for “GATCCGGGTAGGGTTCACCGAAAGTTCACTCGA (double strand) [betaRARE]”, the results for the binding result (with RIP14-1 (Mus musculus) (some binding without RXR); in series [1]; in series [2]) were “binds more weakly”, “binds” and “binds”, respectively.

Take “CTAGACAAGGGTTCAATGCACTTGTCCATCG (double strand) [hsp27 EcRE]”: the binding result with RIP14-1 (Mus musculus) (without RXR) is “no binding”; in series [2], “binds”.
